Assay: general procedure: Fmoc solid-phase peptide synthesis
Settings: whole synthesis

## TAMRA-Ahx-T-Aza-KKMRR-Aza-R-NH2
  isolated yield: 5%

## TAMRA-Ahx-TNKKMRRNRFK-NH2
  isolated yield: 25%

## TAMRA-Ahx-T-Aha-KKMRR-Aha-R-NH2
  isolated yield: 8%

Reference: publication PMC5291322 (Angewandte Chemie (International Ed. in English), 2016)
